Test results: paper doi:10.1101/524314
Results are given in words; binding and its absence hold for the method and conditions named. Binding seen in cells or lysates may run through a third protein. Binding calls can cover weak binding; strength is not graded here.

Key:
[1] = target: T1, ribosomal protein S3A (Drosophila melanogaster (endogenous in embryo extract)) (UniProt P55830); experiment: cross-linking
T1 sequence: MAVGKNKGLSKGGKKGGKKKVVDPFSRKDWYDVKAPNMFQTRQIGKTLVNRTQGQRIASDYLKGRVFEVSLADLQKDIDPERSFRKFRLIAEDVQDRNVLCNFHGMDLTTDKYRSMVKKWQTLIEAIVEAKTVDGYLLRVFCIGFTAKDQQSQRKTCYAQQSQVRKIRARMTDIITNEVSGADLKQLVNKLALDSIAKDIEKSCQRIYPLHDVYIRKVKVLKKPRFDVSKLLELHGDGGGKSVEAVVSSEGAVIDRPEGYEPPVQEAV

[2] = target: T2, ribosomal protein S19a (Drosophila melanogaster (endogenous in embryo extract)) (UniProt P39018); experiment: cross-linking
T2 sequence: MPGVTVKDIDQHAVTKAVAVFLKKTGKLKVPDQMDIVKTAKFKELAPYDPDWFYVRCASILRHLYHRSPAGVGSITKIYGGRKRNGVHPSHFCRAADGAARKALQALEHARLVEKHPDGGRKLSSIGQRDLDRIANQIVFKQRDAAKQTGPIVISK

binding [1]: binds | binding [2]: binds
Substance: Vig2 protein
